Laboratory results: PubChem BioAssay AID1159584 (Peter MacCallum Cancer Centre, 2016)

- Assay: 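Knock-downs that harm CDH1-null cells more than parental MCF10A cells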 (primary screen)
- Cell system: human MCF10A breast epithelial cells, parental and CDH1-null
- Reagents: siRNA against human genes
- Measurement: 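ATP luminescence (CellTiter-Glo) viability per line relative to mean mock wells over all plates, and the ratio of CDH1-null to parental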
- Reading the numbers: CDH1-null / parental viability ratio: higher = CDH1-null cells survive relatively better than parental
The whole screen tested about 18,000 reagents; this is a part drawn at random. Not all columns of the deposit are shown. The record does not give: the amount of reagent, the time to read-out.

Against ZNF407, the values are CDH1-null / parental viability ratio 1.22.
TMEM126B gave CDH1-null / parental viability ratio 1.03.
With knock-down of BMP5 the results were CDH1-null / parental viability ratio 1.14.
Knock-down of ZNF529 came out at: CDH1-null / parental viability ratio 1.22.
With knock-down of KHDRBS1, the record shows CDH1-null / parental viability ratio 0.88.
Knock-down of BICRAL gave: CDH1-null / parental viability ratio 1.03.
Against RUNDC1 the deposit lists CDH1-null / parental viability ratio 1.23.
Silencing of TDRKH resulted in: CDH1-null / parental viability ratio 0.89.
DDX59 scored CDH1-null / parental viability ratio 1.05.
CD74 scored CDH1-null / parental viability ratio 1.04.
RHCE gave CDH1-null / parental viability ratio 0.93.
Against CKLF, the values are CDH1-null / parental viability ratio 0.87.
After knock-down of SLX4 the results were CDH1-null / parental viability ratio 1.06.
For ARHGEF12, the entry reads CDH1-null / parental viability ratio 0.93.
Silencing of CDHR2 resulted in: CDH1-null / parental viability ratio 0.82.
TOE1 scored CDH1-null / parental viability ratio 1.09.
Knock-down of THYN1 came out at: CDH1-null / parental viability ratio 1.08.
For PEX11B, the entry reads CDH1-null / parental viability ratio 0.95.
For KYNU, the values are CDH1-null / parental viability ratio 1.13.
After knock-down of GLIPR1L2 the results were CDH1-null / parental viability ratio 1.14.
IL1RN showed CDH1-null / parental viability ratio 0.75.
After knock-down of MYRF, the screen gave CDH1-null / parental viability ratio 0.87.
With knock-down of PRKAB1, the screen gave CDH1-null / parental viability ratio 0.78.
Knock-down of FAM174C gave: CDH1-null / parental viability ratio 1.07.
Against IPPK, the entry reads CDH1-null / parental viability ratio 0.88.
For PDLIM5, the entry reads CDH1-null / parental viability ratio 1.19.
After knock-down of RAB1A the results were CDH1-null / parental viability ratio 0.85.
Against TNKS2, the values are CDH1-null / parental viability ratio 0.96.
Silencing of TKTL2 resulted in: CDH1-null / parental viability ratio 0.97.
With knock-down of SRSF5, the record shows CDH1-null / parental viability ratio 0.97.
Depletion of HSPA1A resulted in: CDH1-null / parental viability ratio 0.98.
With knock-down of CCDC14, the record shows CDH1-null / parental viability ratio 0.8.
For TRIM59 the deposit lists CDH1-null / parental viability ratio 0.82.
For POLI, the values are CDH1-null / parental viability ratio 0.92.
Silencing of SERPINA11 resulted in: CDH1-null / parental viability ratio 0.9.

2 entries already listed, arranged by “CDH1-null / parental viability ratio”, descending:
CD74: CDH1-null / parental viability ratio = 1.04
RHCE: CDH1-null / parental viability ratio = 0.93
